Measurements as given in patent US20170112896A1, “SMALL MOLECULE RAC OR RHO INHIBITORS” (Ohio State Innovation Foundation, priority 2014, published 2017).
Part of at least one peptide drawing is inferred or uncertain, most often the ends. Square brackets hold non-standard residues; d marks the D form. Peptide text beside a SMILES is read from it. * marks the point of attachment. FITC = O=C1OC2(c3ccc(O)cc3Oc3cc(O)ccc32)c2ccc(NC(=S)*)cc21; Phe(4-F) = N[C@@H](Cc1ccc(F)cc1)C(=O)O; d2Nal = N[C@H](Cc1ccc2ccccc2c1)C(=O)O; dNle = CCCC[C@@H](N)C(=O)O

Target: T1, K-Ras(G12V) (Homo sapiens, UniProt P01116, G12V)
T1 construct: The G12V mutant K-Ras (amino acids 1-185) was recombinantly fused to glutathione 5-transferase (GST) at its N-terminus; GST (N, cleaved yes); made in house; host or cells: Escherichia coli BL21
Test: Fluorescence anisotropy (FA) binding of FITC-labeled cyclic peptides to K-Ras
Conditions: relative to unlabeled Cyclorasin 9A5

Structure (SMILES): CCCC[C@H]1NC(=O)[C@H](Cc2ccc(F)cc2)NC(=O)[C@H](CCCNC(=N)N)NC(=O)[C@@H](Cc2ccc3ccccc3c2)NC(=O)[C@H](CCCCNC(=S)Nc2ccc3c(c2)C(=O)OC32c3ccc(O)cc3Oc3cc(O)ccc32)NC(=O)[C@H](CCCNC(=N)N)NC(=O)[C@H](CCCNC(=N)N)NC(=O)[C@@H](C)NC(=O)[C@H]([C@@H](C)O)NC(=O)[C@H](Cc2c[nH]c3ccccc23)NC(=O)[C@H](CCC(N)=O)NC1=O [FITC-9A5] (cyclo(K(FITC)[d2Nal]R[Phe(4-F)][dNle]QWT[dA]RR))
- reduction of binding affinity for K-Ras by Arg6 to Lys(FITC) labeling: 3-4 fold
